The results in this text go back to the supplement of paper PMC12889115.

In the experiment the test system is Salmonella enterica serovar Typhimurium SL1344. The experiment in a line: bacterial growth OD600 after 18 h with compound and polymyxin B; higher = more bacterial growth (less inhibition). The settings on record: 50 µM, Mueller-Hinton broth.

Structures are written as SMILES. Some of the results follow. Values are raw readings; no control value is given beside them.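 First-pass screen: polymyxin B was added at a level that permeabilizes the Salmonella outer membrane while sparing the inner membrane. DMSO wells, with and without polymyxin B, defined maximum growth. Because plates differed from one another, each plate's data were ranked separately and the compounds with the lowest OD600 were carried forward as hits.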

Take `Cc1ccc(-c2n[nH]cc2CN(C)Cc2ccc3nonc3c2)cc1C`: the “bacterial growth OD600” value (polymyxin B 1 µg/mL) was found to be 0.696. Regarding `CCn1cc(CN2CCCC2C(=O)Nc2ccc(-c3cscn3)cc2)cn1` (configuration not stated), the “bacterial growth OD600” value (polymyxin B 0.75 µg/mL) was 0.85. Regarding `CCn1nc(C)c(CN2CCC(C3CCN(CC(C)C)CC3)C2)c1C` (configuration not stated), the “bacterial growth OD600” value (polymyxin B 0.75 µg/mL) was 0.851. `NC(=O)C1CCN(C(=O)c2csc3nc(-c4ccccc4Cl)cn23)CC1`: the “bacterial growth OD600” value (polymyxin B 1 µg/mL) came out at 0.88. With `CCn1cc(C(=O)N2CCCC(CCc3cccc(F)c3)C2)cn1` (configuration not stated), the “bacterial growth OD600” value (polymyxin B 0.75 µg/mL) turned out to be 0.485. Consider `CCOC(=O)N1CCN(Cc2nc(N3CCCCCC3)c3ccccc3n2)CC1`, for which the “bacterial growth OD600” value (polymyxin B 0.75 µg/mL) is 0.904.

On to `O=C(NC1CCCN(CCc2ccccc2)C1)c1c(F)ccc(F)c1F` (configuration not stated), for which, under “polymyxin B 0.75 µg/mL”, the “bacterial growth OD600” value stood at 0.817. On the same count and under the same terms, in the case of `CCN(Cc1ccncc1)C(=O)CC1(c2cccc(C(F)(F)F)c2)CC(=O)N(C2CC2)C1=O` (configuration not stated) it was 0.988.

As for `COc1ccc(CCN2C(=O)O[C@@H]3CN(C4CCOCC4)C[C@@H]32)cc1`, the “bacterial growth OD600” value (polymyxin B 1 µg/mL) came to 1.04. With `CCN1C(=O)CC(CC(=O)N2CCN(c3ccccc3O)CC2)(c2cccc(C(F)(F)F)c2)C1=O` (configuration not stated), the “bacterial growth OD600” value (polymyxin B 0.75 µg/mL) is 0.833. Regarding `CCN(Cc1cccc(C)n1)CC1CCCN(CCc2cccc(OC)c2)C1` (configuration not stated), the “bacterial growth OD600” value (polymyxin B 1 µg/mL) stood at 0.894. On to `COC(=O)[C@@H](NC(=O)c1cc(OC)ccc1OC1CCN(C(C)=O)CC1)C(C)C`, for which the “bacterial growth OD600” value (polymyxin B 1 µg/mL) was 1.23. For the compound `Cc1ccc(CNc2nc(CN(C)C(C)c3ccon3)nc3ccccc23)cc1` (configuration not stated), where the note is “polymyxin B 0.75 µg/mL”, the “bacterial growth OD600” value is 0.806. For `CCOc1ccccc1CN1CCCC(CNC(=O)c2cccs2)C1` (configuration not stated), the “bacterial growth OD600” value (polymyxin B 1 µg/mL) was 0.886.

Turning to `CCOC(=O)C1(Cc2ccc(F)cc2)CCCN(C(=O)C2CC2)C1` (configuration not stated), the “bacterial growth OD600” value (polymyxin B 1 µg/mL) amounted to 1.06. For the compound `O=C1CCC(CCC(=O)N2CCC(C(O)Cc3ccccc3)CC2)(Cc2ccc(Cl)cc2)N1` (configuration not stated), the “bacterial growth OD600” value (polymyxin B 0.75 µg/mL) came to 0.824. Take `O=C(NCc1ccncc1)c1cc(CN2CCC(Cc3ccccc3)CC2)on1`: under “polymyxin B 1 µg/mL”, the “bacterial growth OD600” value came to 0.878. For `Cc1nn(C)c(C)c1CN(C)C(=O)CC(c1ccccc1)c1ccccc1F` (configuration not stated), for the setting “polymyxin B 0.75 µg/mL”, the “bacterial growth OD600” value was 0.496. As for `O=C1N(Cc2cccc(Cl)c2)C[C@@H]2C[C@@H](c3ccccc3)N3CCC[C@@]123`, the “bacterial growth OD600” value (polymyxin B 0.75 µg/mL) worked out at 0.513.

For the compound `COc1ccccc1CCC(=O)Nc1cnn(CC(=O)NC(C)Cc2ccsc2)c1` (configuration not stated), where the note is “polymyxin B 0.75 µg/mL”, the “bacterial growth OD600” value was 0.798. As to `CCc1noc(C)c1C(=O)N1CCC(CCC(=O)Nc2cccc(OC)c2)CC1`, where the note is “polymyxin B 1 µg/mL”, the “bacterial growth OD600” value was determined as 1.08.

Consider `O=C(NCc1ccc(F)c(F)c1)C1CCC(=O)N(CC2CCCCC2)C1` (configuration not stated), for which the “bacterial growth OD600” value (polymyxin B 1 µg/mL) amounted to 1.02. In the case of `OC(CCc1ccccc1)c1ccc2c(c1)CN(Cc1ccco1)CCO2` (configuration not stated), under “polymyxin B 0.75 µg/mL”, the “bacterial growth OD600” value came out at 0.84. For the compound `CC1CCN(Cc2nnnn2CC(=O)NCCc2c[nH]c3ccccc23)CC1`, the “bacterial growth OD600” value (polymyxin B 0.75 µg/mL) was determined as 0.785. As for `COc1cccc(C(=O)NCC2Cc3cc(-c4ccnc(SC)n4)cc(Cl)c3O2)c1` (configuration not stated), where the note is “polymyxin B 0.75 µg/mL”, the “bacterial growth OD600” value is 0.013. With `Cc1ccccc1N1CCN(C2CCCN(C(=O)c3ccccn3)C2)CC1` (configuration not stated), the “bacterial growth OD600” value (polymyxin B 1 µg/mL) worked out at 0.894. Take `c1ccc(-c2n[nH]cc2CN2CCc3onc(-c4ccccc4)c3C2)cc1`: the “bacterial growth OD600” value (polymyxin B 0.75 µg/mL) is 0.349.

For `Cc1c(C(C)NC(=O)c2ccc(OC3CCN(C(=O)C4CC4)CC3)cc2)cnn1C` (configuration not stated), the “bacterial growth OD600” value (polymyxin B 1 µg/mL) turned out to be 0.842. Consider `Cc1cccc(C(=O)NC2CC(=O)N(Cc3cccc4ccccc34)C2)n1` (configuration not stated), for which the “bacterial growth OD600” value (polymyxin B 1 µg/mL) came out at 0.83. For `COc1ccc(CNC(C)c2cnn(-c3ccc(F)cc3F)c2C)c(F)c1` (configuration not stated), the “bacterial growth OD600” value (polymyxin B 1 µg/mL) was 1.06.

In the case of `CCN1CCN(C2(C(=O)N(C)CCC3CCCCO3)Cc3ccccc3C2)CC1` (configuration not stated), the “bacterial growth OD600” value (polymyxin B 0.75 µg/mL) came to 0.854.

For the compound `CCOC(=O)C1CCCN(C(=O)CCc2nnc(-c3ccc(C(C)=O)s3)o2)C1` (configuration not stated), for the setting “polymyxin B 0.75 µg/mL”, the “bacterial growth OD600” value came to 0.761.
